Assay results from paper PMC5288160.
No constants are given. Whether binding was seen depends on the method and setting. Binding seen in cells or lysates may run through a third protein. Some binding calls cover weakened binding; strength is not graded here.

Sequences of proteins named here, by UniProt entry; tags and fusion partners are left off.
UniProt O15409: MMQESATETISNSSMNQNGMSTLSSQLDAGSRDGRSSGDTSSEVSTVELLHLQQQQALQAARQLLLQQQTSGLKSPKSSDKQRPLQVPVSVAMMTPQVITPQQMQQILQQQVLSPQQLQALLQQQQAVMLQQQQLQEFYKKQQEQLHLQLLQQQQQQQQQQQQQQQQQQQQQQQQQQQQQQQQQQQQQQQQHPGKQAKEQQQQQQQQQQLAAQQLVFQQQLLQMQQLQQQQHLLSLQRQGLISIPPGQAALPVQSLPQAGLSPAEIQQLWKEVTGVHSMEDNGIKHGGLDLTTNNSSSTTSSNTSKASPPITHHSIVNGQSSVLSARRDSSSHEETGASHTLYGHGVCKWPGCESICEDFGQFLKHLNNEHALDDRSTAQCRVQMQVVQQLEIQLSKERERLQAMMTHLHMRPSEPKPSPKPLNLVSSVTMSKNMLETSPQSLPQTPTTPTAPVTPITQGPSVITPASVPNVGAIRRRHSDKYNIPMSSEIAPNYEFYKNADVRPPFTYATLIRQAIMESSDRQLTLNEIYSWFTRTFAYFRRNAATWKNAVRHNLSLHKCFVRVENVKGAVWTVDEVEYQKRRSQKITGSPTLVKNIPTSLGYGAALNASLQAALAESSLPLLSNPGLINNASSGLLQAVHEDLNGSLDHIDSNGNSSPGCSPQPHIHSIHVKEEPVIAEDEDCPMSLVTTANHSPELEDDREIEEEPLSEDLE

Target: T1, FOXP1 (human (endogenous in RIVA and SU-DHL-2)) (UniProt Q9H334)
T1 sequence: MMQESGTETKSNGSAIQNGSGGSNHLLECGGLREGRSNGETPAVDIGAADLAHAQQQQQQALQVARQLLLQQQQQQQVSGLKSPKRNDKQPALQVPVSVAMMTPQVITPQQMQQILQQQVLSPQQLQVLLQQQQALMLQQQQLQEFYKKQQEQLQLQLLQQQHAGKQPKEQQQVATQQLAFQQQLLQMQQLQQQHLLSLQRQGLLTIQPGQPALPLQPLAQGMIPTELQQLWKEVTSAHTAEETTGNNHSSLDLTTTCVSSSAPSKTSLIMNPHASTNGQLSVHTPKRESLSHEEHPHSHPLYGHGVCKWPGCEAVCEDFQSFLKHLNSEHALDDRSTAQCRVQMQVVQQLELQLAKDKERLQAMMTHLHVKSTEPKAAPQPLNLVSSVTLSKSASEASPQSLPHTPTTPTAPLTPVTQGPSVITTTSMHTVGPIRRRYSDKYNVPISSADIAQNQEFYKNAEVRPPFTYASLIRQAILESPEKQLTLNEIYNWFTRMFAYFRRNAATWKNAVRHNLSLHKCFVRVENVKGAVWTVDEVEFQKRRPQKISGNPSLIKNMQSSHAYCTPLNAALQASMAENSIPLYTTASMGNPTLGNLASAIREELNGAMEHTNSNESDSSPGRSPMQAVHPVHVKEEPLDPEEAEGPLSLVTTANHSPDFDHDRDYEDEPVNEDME
Test: co-IP; endogenous FOXP1 immunoprecipitated with anti-FOXP1 JC12 from RIVA and SU-DHL-2 cell lysates (100 ug, RIPA buffer), 4 °C, Protein G MicroBeads, washes with RIPA and low-salt buffer; FOXP2 detected by Western blot with FOXP2-73A/8; control antibodies IgG2a isotype and 130/B4

- binding: binds
Substance: FOXP2 (from UniProt O15409 1-715)
